# According to publication PMC5833450:
# Chains of the proteins cited; added tags and fusions are not shown.
# UniProt P14598: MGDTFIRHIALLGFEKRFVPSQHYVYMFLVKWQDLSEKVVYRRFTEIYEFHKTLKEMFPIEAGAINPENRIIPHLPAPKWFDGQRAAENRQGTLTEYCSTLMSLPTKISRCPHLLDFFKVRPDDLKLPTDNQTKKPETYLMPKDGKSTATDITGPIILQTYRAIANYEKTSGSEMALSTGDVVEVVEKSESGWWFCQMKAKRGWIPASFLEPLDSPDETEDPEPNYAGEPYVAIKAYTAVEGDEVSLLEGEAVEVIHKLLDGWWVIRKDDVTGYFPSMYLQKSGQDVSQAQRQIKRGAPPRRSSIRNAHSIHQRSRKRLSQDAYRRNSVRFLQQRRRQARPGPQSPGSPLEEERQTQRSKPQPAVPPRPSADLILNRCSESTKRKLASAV
# UniProt P10415: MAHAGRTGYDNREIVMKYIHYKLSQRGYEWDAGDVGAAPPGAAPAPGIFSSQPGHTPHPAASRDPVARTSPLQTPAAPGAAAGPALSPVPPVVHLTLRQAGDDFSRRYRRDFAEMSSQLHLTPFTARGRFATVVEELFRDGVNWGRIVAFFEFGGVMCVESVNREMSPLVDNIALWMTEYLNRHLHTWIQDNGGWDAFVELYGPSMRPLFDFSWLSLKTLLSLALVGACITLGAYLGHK
# UniProt Q03135: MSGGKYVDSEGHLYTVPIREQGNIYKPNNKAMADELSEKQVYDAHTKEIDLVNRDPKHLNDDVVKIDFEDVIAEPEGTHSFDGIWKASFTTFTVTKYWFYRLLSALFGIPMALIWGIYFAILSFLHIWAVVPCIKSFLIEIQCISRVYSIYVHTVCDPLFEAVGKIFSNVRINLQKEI
# UniProt Q14457: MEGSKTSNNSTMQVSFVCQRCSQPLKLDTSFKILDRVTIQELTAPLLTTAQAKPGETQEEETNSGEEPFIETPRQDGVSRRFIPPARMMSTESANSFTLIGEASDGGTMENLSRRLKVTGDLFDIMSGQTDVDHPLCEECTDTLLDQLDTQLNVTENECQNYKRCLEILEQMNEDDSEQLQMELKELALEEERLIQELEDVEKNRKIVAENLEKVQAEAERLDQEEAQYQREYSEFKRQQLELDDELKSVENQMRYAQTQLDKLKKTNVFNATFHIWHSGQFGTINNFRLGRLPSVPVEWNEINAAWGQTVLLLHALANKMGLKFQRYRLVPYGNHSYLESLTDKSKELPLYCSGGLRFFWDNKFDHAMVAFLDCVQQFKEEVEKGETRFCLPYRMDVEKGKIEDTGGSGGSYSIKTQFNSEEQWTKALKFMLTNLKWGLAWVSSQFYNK
# Results are given in words; binding and its absence hold for the method and conditions named. Binding seen in cells or lysates may run through a third protein. Some binding calls cover weakened binding; strength is not graded here.
# B1: melatonin receptor 2 (receptor, UniProt P49286 1-362)
# chain: MSENGSFANCCEAGGWAVRPGWSGAGSARPSRTPRPPWVAPALSAVLIVTTAVDVVGNLLVILSVLRNRKLRNAGNLFLVSLALADLVVAFYPYPLILVAIFYDGWALGEEHCKASAFVMGLSVIGSVFNITAIAINRYCYICHSMAYHRIYRRWHTPLHICLIWLLTVVALLPNFFVGSLEYDPRIYSCTFIQTASTQYTAAVVVIHFLLPIAVVSFCYLRIWVLVLQARRKAKPESRLCLKPSDLRSFLTMFVVFVIFAICWAPLNCIGLAVAINPQEMAPQIPEGLFVTSYLLAYFNSCLNAIVYGLLNQNFRREYKRILLALWNPRHCIQDASKGSHAEGLQSPAPPIIGVQHQADAL
# Key:
# [1] = biological target: NCF-1 (human (endogenous in HCT116)) (UniProt P14598); test: co-IP
# [2] = biological target: Bcl-2 (human (endogenous in HCT116)) (UniProt P10415); test: co-IP
Molecule,binding [1],binding [2]
caveolin-1 (from UniProt Q03135 1-178),binds,–
Beclin-1 (from UniProt Q14457 1-450),–,binds
B1,binds,–
